Experimental findings from US12037382 are described below.

Amino acid sequences for entries named in this document (tags omitted). Residues count along the entry.
UniProt P49238: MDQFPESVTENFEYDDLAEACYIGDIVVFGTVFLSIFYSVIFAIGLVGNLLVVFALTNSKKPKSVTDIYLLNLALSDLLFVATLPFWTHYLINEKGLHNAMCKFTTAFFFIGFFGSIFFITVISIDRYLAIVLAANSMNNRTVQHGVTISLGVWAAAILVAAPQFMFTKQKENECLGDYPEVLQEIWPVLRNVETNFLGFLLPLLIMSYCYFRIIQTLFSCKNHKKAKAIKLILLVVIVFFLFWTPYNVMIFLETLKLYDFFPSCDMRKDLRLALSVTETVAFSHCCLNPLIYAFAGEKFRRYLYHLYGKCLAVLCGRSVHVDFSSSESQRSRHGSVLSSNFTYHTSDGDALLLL
UniProt P78423, residues 25-100: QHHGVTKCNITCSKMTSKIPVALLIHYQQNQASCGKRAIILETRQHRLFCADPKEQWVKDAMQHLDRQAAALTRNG

Results are given in words; binding and its absence hold for the method and conditions named. Some binding calls cover weakened binding; strength is not graded here.

The target of assay [1] is human receptor CX3CR1 (human) (UniProt P49238). Put plainly: binding of 125I-CX3CL1 to CX3CR1-expressing HEK293T membranes and its displacement by unlabeled CX3CL1.
For assay [2] the target is unchanged. Put plainly: 125I-CX3CL1 on CX3CR1-expressing HEK293T membranes.

Turning to “human chemokine CX3CL1 (from UniProt P78423 25-100) (ligand)”, the binding entry in assay [1] and in assay [2] was “binds” each time.
